Results on nine compounds are retold here after the supplement of paper PMC4604168 (melanoma cell lines).

The other results are listed elsewhere or left out. Single values are uncertain, as repeats are few or missing.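 Imaging used 1,536-well plates; nuclei positive for cleaved PARP by antibody were divided by total DNA-stained nuclei to yield the apoptosis fraction. Doses for screening kept most cells viable, and cell lines differ markedly in resting and induced cleaved-PARP levels.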

Among the test systems are MZ2-MEL; MeWo; RPMI7951; RVH-421; SkMel28; SkMel2; SkMel30; SkMel5; UACC257; UACC62; WM115; WM1716; WM1745; WM3526; WM3619; WM451Lu.
Experiment in all cases: cleaved PARP positive nuclei fraction relative to DMSO control; melanoma cells; higher = more apoptosis
Conditions in all cases: library dose: low library concentration; 72 h

With `Cn1c(=O)n(-c2ccc(C(C)(C)C#N)cc2)c2c3cc(-c4cnc5ccccc5c4)ccc3ncc21` + CCc1ccc(CCOc2ccc(CC3SC(=O)NC3=O)cc2)nc1 [pioglitazone] (first compound 0.004 µM, partner dose 2 µM), the “cleaved PARP positive nuclei fraction” value is 26.2% in the assay on MZ2-MEL; 90.8% in the assay with MeWo; 124% with RPMI7951; 92.2% with RVH-421; 372% in the assay with SkMel28; 48.4% with SkMel2. Moreover, the “cleaved PARP positive nuclei fraction” value in the assay on SkMel30 is 46.2%; with SkMel5, 62.8%; in the assay on UACC257, 298%; in the assay on UACC62, 78.5%; in the assay on WM115, 75.5%; with WM1716 it was 64.5%. Moreover, the “cleaved PARP positive nuclei fraction” value in the assay with WM1745 is 81.5%; in the assay with WM3526 it was 88.8%; in the assay with WM3619 it was 90.6%; with WM451Lu, 155%.
For `Cc1cc(Nc2cc(N3CCN(C)CC3)nc(/C=C/c3ccccc3)n2)n[nH]1` + COc1cc(Nc2ncc(F)c(Nc3ccc4c(n3)NC(=O)C(C)(C)O4)n2)cc(OC)c1OC [Tamatinib] (first compound 0.04 µM, partner dose 0.4 µM), the “cleaved PARP positive nuclei fraction” value came to 92.4% in the assay with MZ2-MEL; 117% in the assay with MeWo; 74.8% in the assay with RPMI7951; 133% with RVH-421; 131% with SkMel28; 92.2% in the assay with SkMel2. The “cleaved PARP positive nuclei fraction” value stood at 72.2% with SkMel30; 76.6% with SkMel5; 63.3% in the assay on UACC257; 73.5% in the assay with UACC62; 72.6% in the assay with WM115; 109% with WM1716. Further, the “cleaved PARP positive nuclei fraction” value in the assay with WM1745 was 118%; with WM3526 it was 56.8%; with WM3619, 105%; in the assay with WM451Lu, 130%.
On to `Nc1nc(F)nc2c1ncn2[C@@H]1O[C@H](CO)[C@@H](O)[C@@H]1O` [fludarabine] + NCC(=O)Nc1ccc(-n2nc(C(F)(F)F)cc2-c2ccc3c(ccc4ccccc43)c2)cc1 [OSU03012] (first compound 0.2 µM, partner dose 1 µM), for which the “cleaved PARP positive nuclei fraction” value in the assay with MZ2-MEL worked out at 140%; with MeWo it was 570%; in the assay on RPMI7951, 53.7%; in the assay with RVH-421, 83.5%; in the assay with SkMel28, 40.8%; in the assay on SkMel2 it was 407%. Besides, the “cleaved PARP positive nuclei fraction” value stood at 829% in the assay with SkMel30; 69.6% in the assay on SkMel5; 584% in the assay with UACC257; 82.6% in the assay with UACC62; 217% with WM115; 139% with WM1716. The “cleaved PARP positive nuclei fraction” value in the assay on WM1745 amounted to 179%; with WM3526, 177%; in the assay with WM3619 it was 91.3%; in the assay with WM451Lu, 136%.
With `Cc1cc(Nc2cc(N3CCN(C)CC3)nc(/C=C/c3ccccc3)n2)n[nH]1` + O=C(CCCCCCC(=O)Nc1ccccc1)NO [vorinostat] (first compound 0.04 µM, partner dose 0.08 µM), the “cleaved PARP positive nuclei fraction” value in the assay with MZ2-MEL came to 15.5%; with MeWo it was 36.6%; with RPMI7951, 126%; in the assay with RVH-421, 115%; in the assay with SkMel28, 98.3%; in the assay with SkMel2, 115%. The “cleaved PARP positive nuclei fraction” value in the assay with SkMel30 turned out to be 58.6%; in the assay with SkMel5, 81.2%; in the assay with UACC257, 97.2%; in the assay on UACC62, 119%; in the assay with WM115, 123%; in the assay with WM1716, 108%. Also, the “cleaved PARP positive nuclei fraction” value in the assay with WM1745 worked out at 88.6%; in the assay on WM3526 it was 67.7%; in the assay on WM3619, 97.9%; in the assay on WM451Lu it was 73.6%.
Regarding `CC(C)C[C@H](NC(=O)[C@H](Cc1ccccc1)NC(=O)c1cnccn1)B(O)O` [Bortezomib] + COc1cc(Nc2ncc(F)c(Nc3ccc4c(n3)NC(=O)C(C)(C)O4)n2)cc(OC)c1OC [Tamatinib] (first compound 0.001 µM, partner dose 0.4 µM), the “cleaved PARP positive nuclei fraction” value in the assay with MZ2-MEL came to 237%; in the assay on MeWo, 58.3%; with RPMI7951 it was 97.2%; in the assay with RVH-421, 60.2%; with SkMel28, 120%; in the assay with SkMel2, 90.2%. Besides, the “cleaved PARP positive nuclei fraction” value amounted to 62.4% in the assay with SkMel30; 77% with SkMel5; 126% in the assay with UACC257; 100% in the assay on UACC62; 124% in the assay with WM115; 106% with WM1716. Besides, the “cleaved PARP positive nuclei fraction” value amounted to 276% with WM1745, 60.7% in the assay with WM3526, 968% in the assay on WM3619 and 29.7% with WM451Lu.
As for `Nc1ncn([C@H]2C[C@H](O)[C@@H](CO)O2)c(=O)n1` [decitabine] + COc1cc(Nc2ncc(F)c(Nc3ccc4c(n3)NC(=O)C(C)(C)O4)n2)cc(OC)c1OC [Tamatinib] (first compound 0.1 µM, partner dose 0.4 µM), the “cleaved PARP positive nuclei fraction” value amounted to 126% in the assay on MZ2-MEL; 72% with MeWo; 140% in the assay on RPMI7951; 46.4% in the assay on RVH-421; 105% with SkMel28; 89.8% in the assay with SkMel2. Besides, the “cleaved PARP positive nuclei fraction” value was found to be 66.6% with SkMel30; 153% in the assay on SkMel5; 185% in the assay on UACC257; 225% in the assay with UACC62; 227% in the assay on WM115; 206% in the assay on WM1716. Moreover, the “cleaved PARP positive nuclei fraction” value in the assay with WM1745 came to 127%; with WM3526 it was 68.1%; in the assay on WM3619, 90.3%; with WM451Lu it was 100%.
For the compound `C=C(c1ccc(C(=O)O)cc1)c1cc2c(cc1C)C(C)(C)CCC2(C)C` [Bexarotene] + COc1ccc(COc2ccc(Cc3cnc(N)nc3N)cc2OC)cc1 [GW2580] (first compound 2 µM, partner dose 1 µM), the “cleaved PARP positive nuclei fraction” value with MZ2-MEL turned out to be 131%; in the assay on MeWo it was 72.4%; with RPMI7951, 98.9%; in the assay with RVH-421 it was 71.3%; in the assay on SkMel28 it was 221%; with SkMel2, 46.9%. Further, the “cleaved PARP positive nuclei fraction” value in the assay on SkMel30 came to 110%; in the assay on SkMel5, 174%; in the assay with UACC257, 141%; in the assay with UACC62, 55.8%; with WM115, 73%; in the assay on WM1716, 669%. Also, the “cleaved PARP positive nuclei fraction” value in the assay with WM1745 amounted to 94.7%; in the assay on WM3526 it was 155%; in the assay on WM3619, 107%; in the assay on WM451Lu it was 12.3%.
As to `CS(=O)(=O)CCNCc1ccc(-c2ccc3ncnc(Nc4ccc(OCc5cccc(F)c5)c(Cl)c4)c3c2)o1` [lapatinib] + CC(C)(C)c1cnc(CSc2cnc(NC(=O)C3CCNCC3)s2)o1 [SNS-032] (first compound 0.8 µM, partner dose 0.01 µM), the “cleaved PARP positive nuclei fraction” value in the assay with MZ2-MEL was 94.8%; with MeWo, 136%; with RPMI7951 it was 138%; in the assay with RVH-421, 150%; with SkMel28, 58.8%; in the assay on SkMel2, 114%. Besides, the “cleaved PARP positive nuclei fraction” value in the assay with SkMel30 worked out at 47.3%; with SkMel5, 60.6%; in the assay on UACC257 it was 116%; in the assay with UACC62 it was 149%; in the assay on WM115 it was 141%; in the assay on WM1716, 111%. The “cleaved PARP positive nuclei fraction” value with WM1745 was 95.8%; with WM3526, 116%; in the assay with WM3619, 53.7%; in the assay with WM451Lu, 109%.
Regarding `CC(C)C[C@H](NC(=O)[C@H](Cc1ccccc1)NC(=O)c1cnccn1)B(O)O` [Bortezomib] + Cc1cc(N2CCOCC2)cc2[nH]c(-c3c(NC[C@@H](O)c4cccc(Cl)c4)cc[nH]c3=O)nc12 [BMS536924] (first compound 0.001 µM, partner dose 0.2 µM), the “cleaved PARP positive nuclei fraction” value with MZ2-MEL came out at 185%; with MeWo, 121%; in the assay on RPMI7951 it was 92.6%; in the assay with RVH-421, 201%; in the assay on SkMel28 it was 74.7%; in the assay on SkMel2 it was 52.2%. Moreover, the “cleaved PARP positive nuclei fraction” value with SkMel30 was 87.9%; in the assay on SkMel5, 288%; in the assay on UACC257 it was 147%; in the assay on UACC62 it was 184%; in the assay on WM115, 59.9%; with WM1716, 688%. The “cleaved PARP positive nuclei fraction” value in the assay on WM1745 is 191%; in the assay on WM3526 it was 64.1%; in the assay on WM3619, 650%; in the assay with WM451Lu, 70.5%.
